No constants are given. Whether binding was seen depends on the method and setting. In cells and extracts the contact can be indirect. Binding calls can cover weak binding; strength is not graded here. Sequences can lack the tags named with a protein.

This assay deals with T1, 3Flag-Six1b (zebrafish Six1b, Flag-tagged) (zebrafish) (UniProt Q6NZ04).
T1 sequence: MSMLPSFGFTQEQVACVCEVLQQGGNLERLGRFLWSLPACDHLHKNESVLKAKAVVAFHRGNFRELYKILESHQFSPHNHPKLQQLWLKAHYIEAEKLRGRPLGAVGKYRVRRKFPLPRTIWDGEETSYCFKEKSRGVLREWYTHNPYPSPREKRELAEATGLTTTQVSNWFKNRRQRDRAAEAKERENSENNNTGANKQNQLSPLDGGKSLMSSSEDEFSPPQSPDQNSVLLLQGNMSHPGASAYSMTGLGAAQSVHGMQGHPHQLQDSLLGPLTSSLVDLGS
Put plainly: co-IP; 3HA-Eya2 and 3Flag-Six1b coexpressed in HEK293T cells; lysed in RIPA buffer 36 h after transfection; lysates incubated overnight at 4°C with HA or Flag antibodies, then protein A/G beads; washed with 50 mM tris-HCl (pH 7.4), 150 mM NaCl, 0.5% Triton X-100; Western blotting.

“3HA-Eya2 (zebrafish Eya2, hemagglutinin-tagged)”: the binding entry is listed as “binds”.

The record behind these values is publication PMC12372851.
